Laboratory results: PubChem BioAssay AID1053208 (Peter MacCallum Cancer Centre, 2014)
Assay: 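Synthetic lethal interactions between gene loss and doxorubicin in osteosarcoma cells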 (primary screen). Cell system: mouse osteosarcoma cells, early-passage culture from an engineered mouse model of fibroblastic bone tumour. Knock-down reagent: siRNA pool against mouse genes, 40 nM. Time to read-out: about 120 h (48 h before drug, then 72 h with drug). Treatment: doxorubicin 100 nM for 72 h, roughly 30-40% inhibitory dose. Detection: 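Luminescent ATP signal taken as viability with or without 100 nM doxorubicin for 72 h; mean of two wells set against non-targeting siRNA and turned into robust z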. Reading the numbers: viability z-score with doxorubicin and doxorubicin viability vs non-targeting: higher = more viable cells under doxorubicin; viability z-score without drug: higher = more viable cells with knock-down alone; z-score of drug to no-drug ratio: higher = less drug sensitisation by knock-down. Rule for the call: 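Called active if knock-down leaves viability unchanged without drug (z within -2 to 2) but lowers it with doxorubicin (z at or under -2)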.
Here is a random part of about 17,000 deposited reagents. 788 of them (4.7%) count as active. 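Calls rest on z-score classes alone; an extra cut-off of viability at most 70% of control was not applied to them.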 Reagents against one gene are numbered here. No sequences are given here.

Target gene | reagent no. | combined z-score class | viability z-score with doxorubicin | viability z-score without drug | z-score of drug to no-drug ratio | doxorubicin viability vs non-targeting | call
Ncapg2 | 1 | no change with or without drug | 0.34 | -0.17 | 0.56 | 0.97 | inactive
Sfmbt2 | 1 | no change with or without drug | -0.9 | -1.18 | 0 | 0.86 | inactive
Glis3 | 1 | no change with or without drug | 1.12 | 0.84 | 0.67 | 1.04 | inactive
Ncor1 | 1 | no change with or without drug | 0.22 | 0.34 | 0.11 | 0.96 | inactive
Tmpo | 1 | no change with or without drug | 0 | -0.51 | 0.45 | 0.94 | inactive
Slc38a11 | 1 | no change with or without drug | 0 | 0 | 0.11 | 0.94 | inactive
Ly6h | 1 | no change with or without drug | 0.11 | -0.51 | 0.56 | 0.95 | inactive
Slc45a3 | 1 | low cell count with doxorubicin only | -2.81 | 0.84 | -3.26 | 0.69 | active
Akt3 | 1 | no change with or without drug | 1.69 | 0.51 | 1.46 | 1.09 | inactive
Ak5 | 1 | no change with or without drug | -0.22 | 0.17 | -0.22 | 0.92 | inactive
Dph3 | 1 | no change with or without drug | 0.67 | 1.18 | 0 | 1 | inactive

As entered above:
Tmpo, viability z-score without drug → -0.51
Ncor1, call: inactive

The results go on:
Target gene | reagent no. | combined z-score class | viability z-score with doxorubicin | viability z-score without drug | z-score of drug to no-drug ratio | doxorubicin viability vs non-targeting | call
Fermt3 | 1 | no change with or without drug | 0.22 | 0.17 | 0.22 | 0.96 | inactive
Capn1 | 1 | no change with or without drug | 0 | -0.17 | 0.22 | 0.94 | inactive
Fbxo4 | 1 | no change with or without drug | 1.24 | 0.51 | 1.01 | 1.05 | inactive
Fbxo4 | 2 | low cell count with doxorubicin only | -2.02 | -0.84 | -1.57 | 0.76 | active
Edem3 | 1 | high cell count without drug only | 0.22 | 2.36 | -1.12 | 0.96 | inactive
Slc29a2 | 1 | high cell count without drug only | 1.46 | 2.36 | 0 | 1.07 | inactive
Tmx3 | 1 | no change with or without drug | -0.11 | -1.01 | 0.67 | 0.93 | inactive
Tmprss2 | 1 | no change with or without drug | -1.01 | -1.85 | 0.34 | 0.85 | inactive
Pou4f2 | 1 | no change with or without drug | 1.35 | 0.17 | 1.35 | 1.06 | inactive
